# Test results: the supplement of paper PMC5770031
# This is one part of the list. This data set is noisy: repeats of one test often differ as much as different tests do.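 ATM8/balancer (normal ATM) heterozygous flies were crossed on treated food; parents laid eggs 5–6 days, offspring developed ~12 days, so parents and larvae ingested compound. Readout: fraction of emerged adults homozygous for ATM8 versus 2% DMSO controls. Compounds were neutral at 10–20% homozygotes, harmful below 10%, helpful above 20%.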
# Tested on: Drosophila melanogaster ATM8 (temperature-sensitive ATM allele)
# Assay: fraction of eclosed F1 progeny that are homozygous ATM8 (rescue of developmental lethality); higher = more rescue of ATM8 developmental lethality; extreme values may be limits of the assay
# Settings: compound concentration applied to food 0.2 mM; 21 °C
row,Structure (SMILES),fraction of eclosed F1 progeny that are homozygous ATM8
1,CN(C)CC(c1ccc(O)cc1)C1(O)CCCCC1 (stereo not given),0.229
2,OCc1ccccc1O,0.148
3,O=C(c1ccccc1)c1ccc2n1CCC2C(=O)O (stereo not given),0.103
4,N[C@@H](C(=O)O)[C@@H](O)[C@H](O)[C@H](O)CO,0.0577
5,COc1c(N2CCNC(C)C2)c(F)cc2c(=O)c(C(=O)O)cn(C3CC3)c12 (stereo not given),0.087
6,CC(C)Cn1c(=O)n(C)c(=O)c2[nH]cnc21,0.167
7,O=c1[nH]cnc2c1ncn2[C@@H]1O[C@H](CO)[C@@H](O)[C@H]1O,0.271
8,COc1cc([C@@H]2c3cc4c(cc3[C@@H](O[C@@H]3O[C@@H]5CO[C@@H](c6cccs6)O[C@H]5[C@H](O)[C@H]3O)[C@H]3COC(=O)[C@H]23)OCO4)cc(OC)c1O,0.471
9,O=c1ccc2ccccc2o1,0.203
10,CC1(C)C=Cc2cc3ccc(=O)oc3cc2O1,0.176
11,NCCOB(c1ccccc1)c1ccccc1,0.12
12,C/C(=C\CO)CC[C@H](C)CCC[C@H](C)CCCC(C)C,0.0893
13,COc1cc(OC)c2c(=O)c(-c3ccccc3OC)coc2c1,0.162
14,CN(C)CCCN1c2ccccc2Sc2ccc(Cl)cc21,0.0811
15,CCOC(=O)c1c(C)cc(O)cc1O,0.16
16,O=C(O)[C@H]1O[C@@H](Oc2cc3oc(-c4ccccc4)cc(=O)c3c(O)c2O)[C@H](O)[C@@H](O)[C@@H]1O,0.286
17,O=C(O)[C@H](O)[C@@](O)(Cc1ccc(O)cc1)C(=O)O,0.156
18,COc1ccnc(C[S+]([O-])c2nc3cc(OC(F)F)ccc3[nH]2)c1OC (stereo not given),0.138
19,O=c1[nH]c(=O)c2ccccc2o1,0.217
20,Nc1ccn([C@@H]2O[C@H](CO)[C@@H](O)[C@@H]2O)c(=O)n1,0.0667
21,OC[C@H]1O[C@H](OCC2O[C@@H](O)[C@H](O)[C@@H](O)[C@@H]2O)[C@H](O)[C@@H](O)[C@H]1O (stereo not given in full),0.222
22,"CC(=O)[C@H]1CC[C@H]2[C@@H]3CCC4C[C@H](O)CC[C@]4(C)[C@H]3C[C@H](O)[C@]12C (stereo partly drawn) [3alpha,12alpha-DIHYDROXY-PREGNAN-20-ONE]",0.208
23,CC(=O)N[C@@H](C=O)[C@@H](O)[C@H](O)[C@H](O)CO,0.0968
24,CCCCN1CCCCC1C(=O)Nc1c(C)cccc1C (stereo not given),0.14
25,CCOC(=O)NNc1nncc2ccccc12,0.109
26,O=[N+]([O-])c1ccc(O)c([N+](=O)[O-])c1,0.0312
27,CC(=O)c1c(O)cc(O)cc1O,0.0851
28,CC1(C)CCC2=C(O1)C(=O)c1ccccc1C2=O [alpha-LAPACHONE],0.302
29,O=c1c(-c2cc(O)c(O)c(O)c2)coc2cc(O)c(O)c(O)c12,0.216
30,NCCCNCCSP(=O)(O)O,0.0635

# Two records picked at random from those above:
row,Structure (SMILES),fraction of eclosed F1 progeny that are homozygous ATM8
14,CN(C)CCCN1c2ccccc2Sc2ccc(Cl)cc21,0.0811
5,COc1c(N2CCNC(C)C2)c(F)cc2c(=O)c(C(=O)O)cn(C3CC3)c12 (stereo not given),0.087
